Publication PMC7028094
Positions count from the first letter of the chain named. These are yes or no findings as the source states them, for the method shown. In cells and extracts the contact can be indirect. Some binding calls cover weakened binding; strength is not graded here. Tags and fused reporters may be left off the sequences shown.

Assays:
[1] = target: T1, muscle-specific receptor tyrosine kinase (MuSK) p.Ala617Val (human) (UniProt O15146); experiment: co-IP; immunoprecipitation from the surface of transiently transfected HEK-293T cells: cells incubated 48 hr after transfection with 5 µg antibody at 37°C for 3 hr, washed, lysed in cold lysis buffer (10 mM Tris pH 7.5, 100 mM NaCl, 1 mM EDTA, 1% Triton X-100), Dynabeads, western blot
T1 sequence: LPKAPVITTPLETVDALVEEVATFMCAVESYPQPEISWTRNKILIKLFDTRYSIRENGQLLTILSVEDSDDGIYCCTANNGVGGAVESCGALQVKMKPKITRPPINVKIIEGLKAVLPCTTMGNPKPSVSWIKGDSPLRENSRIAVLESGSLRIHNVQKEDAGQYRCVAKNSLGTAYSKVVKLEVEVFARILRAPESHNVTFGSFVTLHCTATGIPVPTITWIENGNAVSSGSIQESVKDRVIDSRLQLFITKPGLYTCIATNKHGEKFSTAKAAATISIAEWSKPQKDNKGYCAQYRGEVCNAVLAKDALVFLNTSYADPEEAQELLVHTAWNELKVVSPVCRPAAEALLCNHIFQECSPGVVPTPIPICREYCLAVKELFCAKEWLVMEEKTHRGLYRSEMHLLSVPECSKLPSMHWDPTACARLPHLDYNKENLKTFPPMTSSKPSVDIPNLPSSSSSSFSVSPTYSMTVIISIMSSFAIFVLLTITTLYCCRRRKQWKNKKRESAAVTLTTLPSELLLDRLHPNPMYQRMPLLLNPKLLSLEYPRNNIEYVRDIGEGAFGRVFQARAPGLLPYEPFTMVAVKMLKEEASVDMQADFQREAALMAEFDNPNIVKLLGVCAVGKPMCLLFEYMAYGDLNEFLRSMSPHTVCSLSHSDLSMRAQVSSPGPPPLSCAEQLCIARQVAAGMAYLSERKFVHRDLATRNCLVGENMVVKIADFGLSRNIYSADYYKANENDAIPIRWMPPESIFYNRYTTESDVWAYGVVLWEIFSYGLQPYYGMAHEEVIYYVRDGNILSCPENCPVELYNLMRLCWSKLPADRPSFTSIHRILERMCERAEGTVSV

[2] = target: T2, muscle-specific receptor tyrosine kinase (MuSK), wild type (human) (UniProt O15146); experiment: as above
T2 sequence: T1 sequence with V594A

B1: DOK7, EGFP-tagged (protein, UniProt Q18PE1 1-504)
chain: MTEAALVEGQVKLRDGKKWKSRWLVLRKPSPVADCLLMLVYKDKSERIKGLRERSSLTLEDICGLEPGLPYEGLVHTLAIVCLSQAIMLGFDSHEAMCAWDARIRYALGEVHRFHVTVAPGTKLESGPATLHLCNDVLVLARDIPPAVTGQWKLSDLRRYGAVPSGFIFEGGTRCGYWAGVFFLSSAEGEQISFLFDCIVRGISPTKGPFGLRPVLPDPSPPGPSTVEERVAQEALETLQLEKRLSLLSHAGRPGSGGDDRSLSSSSSEASHLDVSASSRLTAWPEQSSSSASTSQEGPRPAAAQAAGEAMVGASRPPPKPLRPRQLQEVGRQSSSDSGIATGSHSSYSSSLSSYAGSSLDVWRATDELGSLLSLPAAGAPEPSLCTCLPGTVEYQVPTSLRAHYDTPRSLCLAPRDHSPPSQGSPGNSAARDSGGQTSAGCPSGWLGTRRRGLVMEAPQGSEATLPGPAPGEPWEAGGPHAGPPPAFFSACPVCGGLKVNPPP
B1 was tested, and the binding [1] was “binds” and the binding [2] was “binds”.
